Reference: PubChem BioAssay AID540276 (National Center for Advancing Translational Sciences (NCATS), 2011)
“And” between values parts separate entries of the source, which are not always exact repeats. Equal values may be shown once. Hit rate of the full screen: of about 300,000 compounds, about 5,400 (1.8%) were called active. This list was built around the results that the source calls inconclusive (neither active nor inactive); the mix of calls is not that of the screen. Calls follow the shape of the full dose curve; tested in HEK293 cells. Where the call is inconclusive, the potency comes from a doubtful curve fit.

experiment: qHTS for inhibitors of binding or entry into cells for Marburg Virus; conditions: Marburg virus pseudotyped entry inhibition, cell reporter; activity change, negative = inhibition: at 37.8 µM (top of the series) unless noted
% is scaled to controls: 0 for no effect and ±100 for the full control effect; potency is read from the fitted curve at half-maximal effect.

| SMILES | Potency | activity change, negative = inhibition |
| --- | --- | --- |
| CN(C)CCCNC(=O)c1ccc(Cl)c(S(=O)(=O)N2CCCCCC2)c1 | inconclusive: 35.5 µM [inhibitor, single point] |  |
| O=C(N/N=C/c1cccn1-c1cccc(C(=O)O)c1)Nc1ccccc1 |  | inactive: 12.4% |
| Cc1ccc(NC(=O)c2cn(CCC#N)nc2-c2ccc3c(c2)OCCO3)c([N+](=O)[O-])c1 |  | inactive: -1.44% |
| CCc1cccc(CC)c1NC1=NS(=O)(=O)c2ccccc21 |  | inactive: -11.6% [at 46.1 µM] |
| CC(C)OCCCN1C(=O)c2[nH]nc(-c3ccccc3O)c2C1c1ccc(OCc2ccccc2)cc1 (stereo not drawn) | inconclusive: 12.6 µM [inhibitor, partial curve, poor fit] |  |
| CCOC(=O)C1(CC2CCCCO2)CCN(Cc2cc3ccccc3[nH]2)CC1 (stereo not drawn) | inconclusive: 1.58 µM [inhibitor, full curve, poor fit] |  |
| Cc1ccc(C(=O)CN2CCC(NC(=O)C3CCCCC3)CC2)cc1 | inconclusive: 8.2 µM [inhibitor, partial curve] |  |
| CN(c1ccccc1C(=O)Nc1ccc(S(=O)(=O)N2CCOCC2)cc1)S(C)(=O)=O | inconclusive: 6.31 µM [activator, full curve, poor fit] |  |
| Cc1onc(-c2ccccc2)c1C(=O)Nc1sc2c(c1C#N)CCC(C)C2 (stereo not drawn) | inconclusive: 8.2 µM [inhibitor, partial curve] |  |
| C#CCCCO/N=C1/C[C@@H](O)[C@@H](O)[C@@H]2[C@H]3C(=O)N(c4ccc(F)cc4F)C(=O)[C@@H]3CC[C@@H]12 |  | inactive: -7.98% [at 14.2 µM] |
| Cc1c(C(=O)c2ccc(N(C)C)cc2)c2ccccn2c1CCC#N | inconclusive: 35.5 µM [inhibitor, single point] |  |
| Cc1cc(F)ccc1NC(=O)c1sc2nc(-c3cccs3)ccc2c1N |  | inactive: 4.49% [at 46.1 µM] |
| C=CCn1c(SCC(=O)NCc2ccco2)nc2sc3c(c2c1=O)CCCC3 | inconclusive: 6.31 µM [activator, single point] |  |
| Cc1cc(-c2nnc(CCC(=O)N(CC3CC3)CC3CCCO3)o2)no1 (stereo not drawn) |  | inactive: 24.6% [at 46.1 µM] |
| CC(C)CC1NC(=O)N(CC(=O)Nc2ccc(OCc3ccccc3)cc2)C1=O (stereo not drawn) |  | inactive: 4.29% [at 46.1 µM] |
| C/C(=N/NC(=O)c1ccc(C)s1)c1cccc(NC(=O)COc2ccc(Cl)cc2Cl)c1 | inconclusive: 11.2 µM [inhibitor, partial curve, poor fit] |  |
| O=C(CSc1ncnc2nc[nH]c12)c1ccc2ccccc2c1 | inconclusive: 35.5 µM [inhibitor, single point] |  |
| Cc1ccc2cc(CCNC(=O)c3cccs3)c(=O)[nH]c2c1C | inconclusive: 2.91 µM [activator, full curve, poor fit] |  |
| CN(C)Cc1ccccc1Sc1ccc(O)cc1O |  | inactive: 25.3% |
| Cc1ccc(S(=O)(=O)NNC(=O)C2COc3ccccc3O2)cc1 (stereo not drawn) | inconclusive: 1 µM [inhibitor, full curve, poor fit] |  |
| CN1C(=O)/C(=C2\SC(N)=NC2=O)c2ccccc21 | inconclusive: 8.91 µM [activator, partial curve, poor fit] |  |
| O=C(CN1CCN(c2ccc(O)cc2)CC1)N1CCc2ccccc21 |  | inactive: -0.24% [at 46.1 µM] |
| COC(=O)c1ccc(Nc2cc(C)nc3ccc(C)cc23)cc1 | active: 12.6 µM |  |

| SMILES | Potency | activity change, negative = inhibition |
| --- | --- | --- |
| CC(=O)N1c2nc(-c3ccco3)nn2C2(CCCCC2)[C@@H]2CCCC[C@@H]21 |  | inactive: -13.2% [at 46.1 µM] |
| CCn1nc(C)c(/C=N/NC(=O)c2c[nH]c3ccccc23)c1C |  | inactive: 0.248% |
| COc1ccc2ccccc2c1C1CC(=O)N2CN(C)CSC2=C1C#N (stereo not drawn) |  | inactive: -25.5% |
| O=C(CCN1CCc2ccccc2C(c2ccccc2)C1)c1ccc2c(c1)OCCO2 (stereo not drawn) | inconclusive: 35.5 µM [inhibitor, single point] |  |
| COc1ccc(CCNC(=O)Cn2nnc(-c3ccc(N4CCOCC4)cc3)n2)cc1OC | inconclusive: 6.31 µM [activator, single point] |  |
| O=C(CSc1ccc2ccccc2n1)Nc1nsc(-c2ccc(Cl)cc2)n1 | inactive and inconclusive: 14.1 µM [activator, single point] |  |
| O=C(c1ccc2c(c1)N(Cc1ccc(F)cc1)C(=O)c1ccccc1S2(=O)=O)N1CCC(Cc2ccccc2)CC1 | inconclusive: 35.5 µM [inhibitor, single point] |  |
| COc1ccc(C(=O)COC(=O)c2ccccc2C(=O)N(C)c2ccccc2)c(OC)c1 | inconclusive: 1 µM [inhibitor, single point] |  |
| Cc1cccc(C2NC(=O)c3c(sc(C)c3C)N2)c1O (stereo not drawn) |  | inactive: 6.7% |
| CC(C(=O)NC1CCCCCC1)c1ccc([N+](=O)[O-])cc1 (stereo not drawn) | inconclusive: 1.26 µM [activator, single point] |  |
| COC(=O)c1c(NC(=O)CN2CCN(S(=O)(=O)c3ccccc3[N+](=O)[O-])CC2)sc2c1CCC(C)C2 (stereo not drawn) | inconclusive: 14.1 µM [inhibitor, partial curve] |  |
| O=C1CC(=O)N(c2ccccc2)N1c1ccccc1 |  | inactive: 11.2% |
| CC(C)CN(C(=O)c1cc2ccccc2o1)c1c(N)n(CC(C)C)c(=O)[nH]c1=O | inconclusive: 5.62 µM [activator, single point] |  |
| CCC1CCC2(CC1)NNC(=S)NN2 |  | inactive: -26.2% |
| CCOc1ccccc1C1CC(c2ccc(Br)cc2)Nc2nc(N)nn21 (stereo not drawn) | inconclusive: 29.1 µM [inhibitor, single point] |  |
| CC(Sc1nnc2ccccn12)C(N)=O (stereo not drawn) | inconclusive: 10 µM [activator, single point] |  |
| CSc1nc2c(cc1C#N)CCC2 |  | inactive: 2.86% |
| CCOc1ccccc1NC(=O)C1CCN(C(=O)Cc2ccccc2)CC1 |  | inactive: 2.25% [at 46.1 µM] |
| CCOC(=O)CSC1=NC(=O)/C(=C/c2ccc(Br)cc2)S1 |  | inactive: 7.69% [at 46.1 µM] |
| COCC(=O)Nc1ccc(OCc2ccccc2)cc1 | inconclusive: 0.141 µM [activator, full curve, poor fit] |  |
| CC1=NN(c2ccccc2)C(=O)/C1=C/c1c(O)[nH]c(=O)[nH]c1=O |  | inconclusive: 24.1% [activator] [at 46.1 µM] |
| O=C(O)Cc1ccc(Oc2ncc(C(F)(F)F)cc2Cl)cc1 |  | inconclusive: 20.5% [activator] [at 46.1 µM] |
| CCOC(=O)C1=C(CN2CCCCCC2)NC(=O)NC1c1ccc2c(c1)OCO2 (stereo not drawn) | inconclusive: 20 µM [inhibitor, partial curve, poor fit] |  |

| SMILES | Potency | activity change, negative = inhibition |
| --- | --- | --- |
| Cc1ccc(/C(N)=N/OC(=O)CSc2ccccc2)cc1 |  | inactive: -20.4% [at 46.1 µM] |
| Cc1nccn1CCN(C)Cc1cn(Cc2ccccc2)nc1-c1ccc2c(c1)OCO2 | inconclusive: 35.5 µM [inhibitor, single point] |  |
| Cc1cccc(CN2CCCC(C(=O)c3ccc4c(c3)OCO4)C2)n1 (stereo not drawn) | inconclusive: 20 µM [inhibitor, single point] |  |
| CC1CCN(C(=O)c2cc(-c3ccc(Cl)cc3)on2)CC1 | inconclusive: 8.91 µM [activator, partial curve, poor fit] |  |
| COc1ccccc1OCc1ccc(C(=O)N2CCN(C(=O)c3ccco3)CC2)cc1 |  | inactive: -3.08% |
| Oc1c(Br)cc(Br)cc1/C=N/N1CCN(Cc2ccccc2)CC1 | inconclusive: 8.91 µM [inhibitor, partial curve, poor fit] |  |
| COc1ccccc1NC(=O)Nc1nc(CC(=O)Nc2cccc(F)c2)cs1 |  | inactive: -24.2% |
| Cn1cc(/C=N/n2cnc3scc(-c4ccccc4)c3c2=O)c2ccccc21 | inconclusive: 2.31 µM [inhibitor, full curve, poor fit] |  |
| O=C(c1cc(-c2cccs2)on1)N1CCCCC1 | inconclusive: 0.355 µM [activator, partial curve, poor fit] |  |
| Cc1cc(C)nc(SCc2ccc(C(=O)N/N=C/c3ccco3)cc2)n1 |  | inactive: 14.7% [at 46.1 µM] |
| Cc1ccccc1-c1nc(CN2CCC(C(=O)NCCN3CCOCC3)CC2)c(C)o1 | inconclusive: 12.6 µM [inhibitor, partial curve, poor fit] |  |
| CCOc1ccc2oc(C(=O)NC(C)(C)CC)c(C)c2c1 | inconclusive: 5.01 µM [activator, single point] |  |
| CCCOc1ccccc1C(=O)N(Cc1ccco1)C1CCS(=O)(=O)C1 (stereo not drawn) | inconclusive: 1 µM [inhibitor, partial curve, poor fit] |  |
| COc1ccc(NC(=O)Cc2c(SC)c3ccccc3n2Cc2ccccc2)cc1 | inconclusive: 4.61 µM [activator, partial curve, poor fit] |  |
| CC(=O)c1ccc(NC(=O)CSc2n[nH]c(-c3cccnc3)n2)cc1 | inconclusive: 3.16 µM [inhibitor, single point] |  |
| O=C(c1ccc(S(=O)(=O)Nc2ccccc2)cc1)N1CCCCCCC1 | inconclusive: 35.5 µM [inhibitor, single point] |  |
| COc1ccccc1CN(C)C(=O)C(NC(=O)Cc1cccc2ccccc12)C(C)C (stereo not drawn) | inconclusive: 6.31 µM [inhibitor, partial curve, poor fit] |  |
| O=C(Nc1ccc(C2SCCS2)cc1)c1ccccc1 | inconclusive: 4.47 µM [activator, partial curve, poor fit] |  |
| O=C(/C=C/c1ccco1)NC(=S)Nc1cc(C(F)(F)F)ccc1N1CCOCC1 | inconclusive: 35.5 µM [inhibitor, single point] |  |
| CCCCn1c(=O)[nH]c(=O)c2c1nc(-c1cc(Cl)c(OC)c(OC)c1)n2C | inconclusive: 3.98 µM [inhibitor, full curve] |  |
| CCOC(=O)c1ccc2c(c1)sc(=NC(=O)c1ccco1)n2CCOC | inconclusive: 5.62 µM [inhibitor, single point] |  |
| CC1CCN(C2=NC(=O)/C(=C/c3ccccc3F)S2)CC1 | inconclusive: 10 µM [inhibitor, partial curve, poor fit] |  |

Reformatted in CSV form: five of the compounds above
SMILES,Potency,"activity change, negative = inhibition"
O=C(N/N=C/c1cccn1-c1cccc(C(=O)O)c1)Nc1ccccc1,,inactive: 12.4%
CCC1CCC2(CC1)NNC(=S)NN2,,inactive: -26.2%
O=C(O)Cc1ccc(Oc2ncc(C(F)(F)F)cc2Cl)cc1,,inconclusive: 20.5% [activator] [at 46.1 µM]
CC1CCN(C(=O)c2cc(-c3ccc(Cl)cc3)on2)CC1,"inconclusive: 8.91 µM [activator, partial curve, poor fit]",
O=C(c1ccc(S(=O)(=O)Nc2ccccc2)cc1)N1CCCCCCC1,"inconclusive: 35.5 µM [inhibitor, single point]",
